Results reported in patent US20170042991A1, “COMPOSITIONS COMPRISING GLUTEN PEPTIDES AND USES THEREOF” (ImmusanT, Inc., priority 2014, published 2017).
Non-standard residues stand in square brackets, D forms with d. pGlu = O=C1CC[C@@H](C(=O)O)N1

Experiments:
PBMC = test: Overnight IFNγ ELISpot assay with fresh PBMC (Example 2); type: cell-based, human; settings: Day-6, n = 5
Experimental: Ten HLA-DQ2.5+ adults with celiac disease diagnosed according to the National Institutes of Health Consensus Statement 2004 were enrolled (Table 7).^22 Subjects were required to have followed gluten-free diet for at least one year and without known gluten exposures within the previous two-months. […] Full inclusion and exclusion criteria are described in Table 8. Each of 3 consecutive days subjects consumed 3 cookies that were prepared from approximately 4.5 g wheat gluten, 3 g barley flour protein, and 1.5 g rye flour protein. Blood was collected before and six days after commencing the oral challenge. Blood was collected using a 21G butterfly needle directly into 10 mL lithium heparin tubes (BD Vacutainer® Heparin tube #367880) and QuantiFERON® NIL (0591-0205, Cellestis Ltd., Chadstone VIC 3148 Australia) and QuantiFERON® MITOGEN (0593-0201, Cellestis Ltd.).
Overnight IFNγ ELISpot assays (Human IFN-γ ELISpotPRO kit, transparent, ALP; Mabtech AB, #3420-2APT-10) were performed using PBMC freshly separated from heparinized blood diluted 1:1 in PBS with 2% fetal bovine serum (Stemcell Technologies #07905; Vancouver, BC, V5Z 1B3, Canada) overlaid on density gradient medium (Ficoll-Paque™ PLUS; GE Healthcare Lice Sciences #:17-1440-02) in SepMate™-50 tubes (Stemcell Technologies #15460). PBMC (8 million/mL) were resuspended in serum-free medium with gentamicin and phenol red (X-VIVO™15; Lonza, Walkersville Mass. 21793). PBMC (0.4 million/50 μL/well) and incubated with 50 μL 80% X-vivol5, 0.2% DMSO and 20% PBS in three triplicate wells (“medium only”), or with 50 μL PHA-L 20 μg/ml or peptide at 2× final concentration in 80% X-vivol5, 0.2% DMSO and 20% PBS. Peptide solutions to be added to individual ELISpot wells were prepared in 96-well U-bottom plates (60 μL/well) that were then sealed with adhesive ELISA plate cover slips before replacing the plastic lid and being frozen at −80° C. 96-well plates containing peptide solutions were thawed at room temperature for 10 min while being centrifuged at 300 g immediately prior to being added to ELISpot wells. Peptide pools and mitogen were assessed in triplicate wells, and individual peptides were assessed in duplicate wells. X-VIVO™15 (50 μL) was incubated with 80% X-vivol5, 0.2% DMSO and 20% PBS (50 μL) in triplicate wells (“no PBMC” control). A Zeiss automated ELISpot counter was used to determine spot forming units (SFU) per well (Zellnet Inc., Fort Lee, N.J. 07024). Laboratory staff were unaware of the arrangement of peptide solutions in ELISpot wells during assay setup and plate counting.

whole blood = test: 96-well plate whole blood multiplex cytokine release, IP-10 (MAGPIX bead assay, Example 2); type: cell-based, human; settings: Day-6, n = 10
[1] = individual peptides 5 μM, rank among 17
[2] = Peptide 2 re-synthesised by Pepscan, 10 μg/mL (5.45 μM)

Row | Substance | IFNγ ELISpot % max (rank) (PBMC; [1]) | IP-10 WB MAGPIX % max (rank) (whole blood; [1]) | IFNγ ELISpot % max (rank) (PBMC; [2]) | IP-10 WB MAGPIX % max (rank) (whole blood; [2])
1 | [pGlu]LQPFPQPELPYPQPQ-NH2 [Peptide 1] | 10 | 3 | – | –
2 | [pGlu]PEQPIPEQPQPYPQQ-NH2 [Peptide 3] | 2 | 2 | – | –
3 | [pGlu]QPFPQPEQPFPWQP-NH2 [Peptide 2, CSBio and Pepscan batches tested separately] | 9 | 5 | 4 | 4
